Reference: patent publication US9434978B2, “Culture medium for screening or enrichment of methicillin-resistant S. aureus” (BIO-RAD INNOVATIONS, priority 2009, dated 2016)
At least one structure is not confirmed: it was looked up by name or label, or the drawing left a doubt.

Test system: MSSA
Assay: Specificity of the medium on the MSSA strains
Assay type: cell-based, Staphylococcus aureus
Conditions: 8 MSSA strains; for number of MSSA strains that grew at 24 h after stress: plates 3 days at 37° C. before inoculation; for number of MSSA strains able to grow at 24 h: plates not submitted to stress
Text: The basal medium comprises peptone, salts, antifungal and antibacterial agents to inhibit the growth of Gram negative bacteria and fungi. The basal medium is chosen to promote the growth of staphylococci, in particular Staphylococcus aureus.
Several strains of MRSA (methicillin resistant S. aureus) and MSSA (methicillin susceptible S. aureus) have been chosen from a collection of strains. Strains were cultivated first on a non selective medium. The colonies are used to perform a “heavy inoculum or HI”, corresponding to approximately 10^8 bacteria/mL inoculated as a spot on a small portion of the plate, and a “light inoculum or LI”, corresponding to approximately 10^5 bacteria/mL streaked on a large portion of the plate. Plates were incubated for 48 h at 35-37° C. The reading was performed at 24 and 48 h of incubation time.
Abbreviations and legends to the Tables: • cefotetan (CTT) • ceftriaxone (CRO) • cefuroxime (CXM) • cefsulodin (CFS), • Cefepime (FEP) • Cefoperazone (CFP) • cefpodoxime (CPD) • moxalactam (MOX) • cefoxitin (FOX) • cefmetazole (CMT) • ceftiofur (XLN) • G: growth (if nothing else is written, “G” means growth with HI and LI at 24 h); Imp G: heavy growth; AG: absence of growth; cfu: colony forming unit; μcfu: pinpoint colonies; SENS: Sensitivity (%); SPE: Specificity (%); MRSA: methicillin-resistant Staphylococcus aureus; MSSA: methicillin-sensitive Staphylococcus aureus; MRSE: methicillin-resistant Staphylococcus epidermidis; MSSE: methicillin-sensitive Staphylococcus epidermidis; Results
When two cephalosporins are added, the stability of the formula is increased. Due to the fact that the molecules are unstable, growth of MSSA often appears after stress. The inventors have mimicked the stress due to transportation of the Petri dishes to the customer's lab, in summer, by placing the plates for 3 days at 37° C. before inoculation and incubation 24 or 48 h. The basal medium composition was the same as described in Example 1. Abbreviations have the same meaning.

Row | Compound | number of MSSA strains that grew at 24 h after stress | number of MSSA strains able to grow at 24 h
1 | COCC1=C(C(=O)O)N2C(=O)[C@@H](NC(=O)/C(=N\OC)c3csc(N)n3)[C@H]2SC1 [CPD, cefpodoxime] | two | few strains of MSSA were able to grow
2 | CO[C@@]1(NC(=O)C2SC(=C(C(N)=O)C(=O)O)S2)C(=O)N2C(C(=O)O)=C(CSc3nnnn3C)CS[C@@H]21 (stereo partly shown) [CTT, cefotetan] | the majority of MSSA strains was also able to grow | few strains of MSSA were able to grow and one
